Measured values reported in patent US20120077737A1, “HEPATITIS C INHIBITOR COMPOUNDS” (priority 2009, published 2012).
Some results were stated once for a whole list of compounds, not compound by compound.

Experiments:
Settings in all cases: statement in words
[1] = system: HCV genotype 1a subgenomic replicon with NS3 resistance mutation D168V; experiment: HCV replicon RNA replication assay, D168V 1a; format: cell-based, HCV genotype 1a (strain H77), Huh-7 cells
[2] = system: HCV genotype 1a subgenomic replicon with NS3 resistance mutation R155K; experiment: HCV replicon RNA replication assay, R155K 1a; format: cell-based, HCV genotype 1a (strain H77), Huh-7 cells
[3] = system: HCV genotype 1b subgenomic replicon with NS3 resistance mutation D168V; experiment: HCV replicon RNA replication assay, D168V 1b; format: cell-based, HCV genotype 1b (Con-1), Huh-7 cells

COc1ccc2c(O[C@@H]3C[C@H]4C(=O)N[C@]5(C(=O)NS(=O)(=O)C6CC6)C[C@H]5/C=C\CCCCC[C@H](NC(=O)c5ccn(CC(F)F)n5)C(=O)N4C3)cc(OC(C)C)nc2c1C [Compound 1011, (2R,6S,12Z,13aS,14aR,16aS)-N-(cyclopropylsulfonyl)-6-({[1-(2,2-difluoroethyl)-1H-pyrazol-3-yl]carbonyl}amino)-2-{[7-methoxy-8-methyl-2-(propan-2-yloxy)quinolin-4-yl]oxy}-5,16-dioxo-1,2,3,6,7,8,9,10,11,13a,14,15,16,16a-tetradecahydrocyclopropa[e]pyrrolo[1,2-a][1,4]diazacyclopentadecine-14a(5H)-carboxamide]
unexpectedly good cell-based potency: cell-based potency against genotype 1a D168V resistance mutation [1] | cell-based potency against genotype 1a R155K resistance mutation [2] | cell-based potency against genotype 1b D168V resistance mutation [3]

COc1ccc2c(O[C@@H]3C[C@H]4C(=O)N[C@]5(C(=O)NS(=O)(=O)C6CC6)C[C@H]5/C=C\CCCCC[C@H](NC(=O)c5ccn(CC(F)(F)F)n5)C(=O)N4C3)cc(OC(C)C)nc2c1C [Compound 1012, (2R,6S,12Z,13aS,14aR,16aS)-N-(cyclopropylsulfonyl)-2-{[7-methoxy-8-methyl-2-(propan-2-yloxy)quinolin-4-yl]oxy}-5,16-dioxo-6-({[1-(2,2,2-trifluoroethyl)-1H-pyrazol-3-yl]carbonyl}amino)-1,2,3,6,7,8,9,10,11,13a,14,15,16,16a-tetradecahydrocyclopropa[e]pyrrolo[1,2-a][1,4]diazacyclopentadecine-14a(5H)-carboxamide]
unexpectedly good cell-based potency: cell-based potency against genotype 1a D168V resistance mutation [1] | cell-based potency against genotype 1a R155K resistance mutation [2] | cell-based potency against genotype 1b D168V resistance mutation [3]

COc1c(F)ccc2c(O[C@@H]3C[C@H]4C(=O)N[C@]5(C(=O)NS(=O)(=O)C6(C)CC6)C[C@H]5/C=C\CCCCC[C@H](NC(=O)c5ccn(C)n5)C(=O)N4C3)cc(OC(C)C)nc12 [Compound 1013, (2R,6S,12Z,13aS,14aR,16aS)-2-{[7-fluoro-8-methoxy-2-(propan-2-yloxy)quinolin-4-yl]oxy}-N-[(1-methylcyclopropyl)sulfonyl]-6-{[(1-methyl-1H-pyrazol-3-yl)carbonyl]amino}-5,16-dioxo-1,2,3,6,7,8,9,10,11,13a,14,15,16,16a-tetradecahydrocyclopropa[e]pyrrolo[1,2-a][1,4]diazacyclopentadecine-14a(5H)-carboxamide]
unexpectedly good cell-based potency: cell-based potency against genotype 1a D168V resistance mutation [1] | cell-based potency against genotype 1a R155K resistance mutation [2] | cell-based potency against genotype 1b D168V resistance mutation [3]

COc1ccc2c(O[C@@H]3C[C@H]4C(=O)N[C@]5(C(=O)NS(=O)(=O)C6CC6)C[C@H]5/C=C\CCCCC[C@H](NC(=O)c5ccc(C(C)(C)O)s5)C(=O)N4C3)cc(OC(C)C)nc2c1C [Compound 1014, (2R,6S,12Z,13aS,14aR,16aS)-N-(cyclopropylsulfonyl)-6-({[5-(2-hydroxypropan-2-yl)thiophen-2-yl]carbonyl}amino)-2-{[7-methoxy-8-methyl-2-(propan-2-yloxy)quinolin-4-yl]oxy}-5,16-dioxo-1,2,3,6,7,8,9,10,11,13a,14,15,16,16a-tetradecahydrocyclopropa[e]pyrrolo[1,2-a][1,4]diazacyclopentadecine-14a(5H)-carboxamide]
unexpectedly good cell-based potency: cell-based potency against genotype 1a D168V resistance mutation [1] | cell-based potency against genotype 1a R155K resistance mutation [2] | cell-based potency against genotype 1b D168V resistance mutation [3]
